Measurements from patent publication US20020127182A1, “Paramagnetic metal ion-based macrocylic magnetization transfer contrast agents and method of use” (Board of Regents, The University of Texas System, priority 2000, published 2002).
For some assays here: At least one compound was matched to its structure with a doubt left. Some of these results come from one statement about several compounds together.

Assays:
[1] = Bound water lifetime τM^298 of Ln(1)^3+ complexes by fitting temperature dependent 17O NMR bound water line widths; exchange limit regime Δω•τM calculated; type: physicochemical; settings: 1.5 T
Procedure: A first experiment, examined the life times at 298° K, τM^298, of water molecules bound to various lanthanide-macrocylic complexes of the present invention, and having the general formula, Ln(1)^3+, where the four pendent arms R, R′, R″ and R″′ are all ethyl-acetamidoacetate (i.e., LnDOTA-4AmCE^3+), as depicted below: [drawing 4]
Individual τM^298 values were obtained by fitting the temperature dependent ^17O NMR bound water line widths according to standard exchange theory. […] Because the bulk water ^17O resonance of Yb(1) solution was relatively narrow at all temperatures, no attempt was made to determine τM^298 for this complex based on the ^17O NMR line width data from bulk water. However, a fit to the bound-water ^1H NMR line width gave a τM^298 of 5.8 μs for Yb(1), consistent with the trend shown in FIG. 3. Moreover, ^1H NMR line width fitting gave very similar results for those systems for which the bound water is directly observable.
As further illustrated in Table 1, the proton chemical shifts of bound water in these lanthanide-macrocylic complexes, δ, relative to bulk water, at 0 ppm are generally highly shifted, either more than 6 ppm downfield or upfield (i.e., ±6 ppm or more), depending upon the properties of the central lanthanide ions. At 1.5 Tesla (T), a magnetic field strength presently used by many commercial MRI scanners, the exchange limit regimes, Δω•τM, of Eu(1)^3+, Tb(1)^3+, Dy(1)^3+, and Ho(1)^3+ are all greater than 1. At higher fields, however, such as 4.7 T and 11.75 T, more lanthanide complexes have exchange limit regimes greater than 1, with Δω•τM increasing as field strength increases. Therefore, favorable MT contrast effects are available for a broad range of lanthanide-macrocylic complexes over a broad range of magnetic field strengths.

[2] = pH dependence of bound water and amide proton lifetimes τM^298 of Eu(2)^- by variable temperature 1H NMR line width fitting; type: physicochemical
Procedure: In a sixth series of experiments, the pH dependence of the bound water (FIG. 14) and the amide (FIG. 15) protons lifetimes, τM^298, were determined by variable temperature ^1H NMR line width fitting. The chemically exchangeable bound water and amide protons have different dependence on pH. For bound water protons, the slowest exchange, i.e., largest τM^298, takes place at pH 7 (FIG. 14). Moreover, the pH dependence may be divided into two linear ranges: an acidic range where τM^298=68.6*pH−172.5; and a basic range where τM^298=−128.2*pH+1212.6, respectively. For the amide protons, the slowest exchange is at pH 5.5 (FIG. 15).

Row | SMILES | Δω●τM (exchange limit regime) [1] | τM^298 of bound water, linear pH dependence ([2]; acidic range) | τM^298 of bound water, linear pH dependence ([2]; basic range)
1 | CCOC(=O)CNC(=O)CN1CCN(CC(=O)NCC(=O)OCC)CCN(CC(=O)NCC(=O)OCC)CCN(CC(=O)NCC(=O)OCC)CC1.[Dy+3] [Dy(1)^3+] | greater than 1 | – | –
2 | CCOC(=O)CNC(=O)CN1CCN(CC(=O)NCC(=O)OCC)CCN(CC(=O)NCC(=O)OCC)CCN(CC(=O)NCC(=O)OCC)CC1.[Eu+3] [Eu(1)^3+] | greater than 1 | – | –
3 | O=C([O-])CNC(=O)CN1CCN(CC(=O)NCC(=O)[O-])CCN(CC(=O)NCC(=O)[O-])CCN(CC(=O)NCC(=O)[O-])CC1.[Eu+3] [Eu(2)^−, LnDOTA-4AmC^−] | – | 68.6*pH−172.5 | −128.2*pH+1212.6
4 | CCOC(=O)CNC(=O)CN1CCN(CC(=O)NCC(=O)OCC)CCN(CC(=O)NCC(=O)OCC)CCN(CC(=O)NCC(=O)OCC)CC1.[Ho+3] [Ho(1)^3+] | greater than 1 | – | –
